# In all, about 320,000 compounds went through this assay and about 22,000 (6.9%) were called active. Inconclusive results, whose numbers are uncertain, are shown with a selection of clear calls. Calls come from the whole dose curve; as a rule, active = well fitted inhibition curve with a large enough effect; inconclusive = small, poorly fitted or top-dose-only effect, or another doubt; inactive = no such curve, though single readings can be large or run the other way. Potencies of inconclusive entries are doubtful fits and often do not repeat. Where a SMILES comes first, the peptide text is derived from it. The star is where a group is joined. Boc = CC(C)(C)OC(=O)*
# Experiment: Primary qHTS for delayed death inhibitors of the malarial parasite plastid, 96 hour incubation
# Settings: P. falciparum luciferase reporter growth; series mostly up to 28.7 µM
# Method in brief: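 Cell-based qHTS: luciferase-tagged P. falciparum in erythrocytes (2% hematocrit, 0.05% parasitemia final) incubated with compounds for 96 hours, 37 C, 5% CO2; luciferase detection reagent then added and luminescence measured.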
# % is set by controls: 0 for no effect and ±100 for the full control effect; potency is the fitted concentration of half-maximal effect.
SMILES,Potency,"activity change, negative = inhibition"
CN(C)c1nc(NCc2ccccc2)nc(N/N=C/c2ccc3c(c2)OCO3)n1,"inconclusive: 11.7 µM [inhibitor, single point]",
CCOCCCNC(=S)NCCNc1nc2ccc(C)cc2cc1C#N,"inconclusive: 18.5 µM [inhibitor, single point]",
CC(=O)NNS(=O)(=O)c1ccc(-c2cc(C(F)(F)F)n(C)n2)s1,inactive,
COc1cc(SC)ccc1C(=O)Nc1ccc2c(c1)CCC2,inactive,
O=C(NCCc1ccc(Cl)cc1)c1ccc(CS(=O)Cc2ccccc2Cl)o1 (configuration not stated),"inconclusive: 14.7 µM [inhibitor, single point]",
COc1cc(C(=O)Nc2ccc([N+](=O)[O-])cn2)cc(OC)c1OC,"inconclusive: 18.5 µM [inhibitor, single point]",
Nc1[nH]c(N=NC(=O)c2ccc(F)cc2)c2ccccc12,"inconclusive: 5.86 µM [inhibitor, partial curve, poor fit]",
Cc1ccc(C)c(Cn2nnc3c(=O)[nH]c(C(=O)NCC4CCCO4)nc32)c1 (configuration not stated),"inconclusive: 18.5 µM [inhibitor, single point]",
CCNc1ccc(C(=O)OCC)cc1NC(=O)c1cccc(S(=O)(=O)N(C)c2ccccc2)c1,active: 2.33 µM,
CC(=O)c1ccc(NC(=O)CCCN2C(=O)COc3ccc(C)cc32)cc1,"inconclusive: 14.7 µM [inhibitor, single point]",
Cc1ccc(S(=O)(=O)c2nc(-c3ccccc3)oc2SCC(=O)NCC2CCCO2)cc1 (configuration not stated),active: 11.7 µM,
O=C(Cn1c(=O)oc2ccccc21)Nc1ccc(Br)cc1,"inconclusive: 11.7 µM [inhibitor, single point]",
Cc1cc[n+](C(C)C(=O)c2ccc(-c3ccccc3)cc2)cc1 (configuration not stated),inactive,
CC1=NN(C(=O)c2ccc(C)o2)C(O)(c2ccccc2)C1 (configuration not stated),inactive,
Cc1ccc(NC2c3ncccc3C(=O)N2c2ccccc2C)cc1C (configuration not stated),inactive,
Cc1ccc(SCC(=O)OC(C)C(=O)NC2CCCCC2C)c(C)c1 (configuration not stated),"inconclusive: 18.5 µM [inhibitor, single point]",
COc1ccc(OC)c(/C=C/C(=O)N(C)CC(=O)Nc2ccc(C)cc2)c1,inactive,
CC(C)C(NC(=O)OC(C)(C)C)C(=O)N1CCCC1C(=O)NC(Cc1ccccc1)C(N)=O (stereo not drawn) (Boc-Val-Pro-Phe-NH2; configuration not given here),"inconclusive: 18.5 µM [inhibitor, single point]",
CCOC(=O)C1CCCN(C(=O)c2ccc(NC(=O)CC3SC(N4CCCC4)=NC3=O)cc2)C1 (configuration not stated),"inconclusive: 7.38 µM [inhibitor, partial curve]",
CN1C(=O)/C(=C/c2ccccc2OCc2ccccc2F)NC1=S,inactive,
COc1ccc(-c2cnnn2-c2ccc(NC(=O)/C=C/c3ccc(OC)c(OC)c3)cc2)cc1,"inconclusive: 10.4 µM [inhibitor, single point]",
CCOc1ccc(N(CC(=O)Nc2nccs2)S(=O)(=O)c2c(C)noc2C)cc1,"inconclusive: 18.5 µM [inhibitor, single point]",
Cc1cc(/C=N/NC(N)=O)c(C)n1-c1ccc(F)cc1,inactive,

SMILES,Potency,"activity change, negative = inhibition"
CCOc1ccc(S(=O)(=O)N2CCCCCC2)c2ccccc12,"inconclusive: 13.1 µM [inhibitor, single point]",
CCOCCCn1c(=S)[nH]c2cc(C(=O)NC3CCCC(C)C3C)ccc2c1=O (configuration not stated),"inconclusive: 11.7 µM [inhibitor, single point]",
Cc1cc(NC(=O)CSc2nc3c(cc2C#N)CCCCC3)no1,"inconclusive: 9.28 µM [inhibitor, partial curve]",
CCN(CC)S(=O)(=O)c1cccc(C(=O)N[C@H](C(=O)Nc2nc3ccc(F)cc3s2)C(C)C)c1,active: 2.62 µM,
Cc1cccc(NC(=O)CCC2CCN(C(=O)C3CC=CCC3)CC2)c1 (configuration not stated),inactive,
COc1cc2ncnc(NCc3ccc(Cl)cc3)c2cc1OC,inactive,
O=C(NC1CC1)c1cc2c(s1)-c1ccccc1OC2,active: 13.1 µM,
CC1CCCC(C)N1CCNC(=O)CCc1nnc2n(Cc3ccccc3)c(=O)c3ccccc3n12 (configuration not stated),active: 11.7 µM,
CC(C)(C)[C@@H]1C=C(C(=O)N2CCN(Cc3ccccc3)CC2)O[C@H](OCCCCO)C1,"inconclusive: 6.57 µM [inhibitor, partial curve, poor fit]",
CCN(Cc1ccccc1)C(=O)CCc1nc(-c2ccc(C)cc2)no1,"inconclusive: 20.8 µM [inhibitor, partial curve, poor fit]",
Cc1nnc(SCC(=O)NC2CCCCCC2)n1C(C)C,"inconclusive: 10.4 µM [inhibitor, single point]",
CCCc1nnc(NC(=O)CCC(=O)NC2CCCC2)s1,"inconclusive: 18.5 µM [inhibitor, single point]",
O=C(NC1CCCCCC1)c1ccc(CN2CCOCC2)cc1,active: 10.4 µM,
Cc1cc(NC(=O)COC(=O)c2ccccc2S(=O)(=O)N(C)c2ccccc2)no1,"inconclusive: 9.28 µM [inhibitor, partial curve]",
COc1ccccc1N1C(=O)N(C(C)=O)C2C1Nc1ccccc1N2C (configuration not stated),"inconclusive: 6.57 µM [inhibitor, partial curve, poor fit]",
Cc1cc(C)c(C)c(S(=O)(=O)N2CCN(C(=O)C3CSC4(C)CCC(=O)N34)CC2)c1C (configuration not stated),"inconclusive: 4.65 µM [inhibitor, partial curve, poor fit]",
COc1ccc(NC(=S)N2CCC(C(=O)c3ccc(F)cc3)CC2)c(OC)c1,inactive,
COC(=O)c1ccc(Cl)cc1NC(=O)/C=C/c1ccc(C)o1,inactive,
Cc1ccc(S(=O)(=O)CCC(=O)NC2CCCCC2)cc1,"inconclusive: 10.4 µM [inhibitor, single point]",
Cc1nc(Nc2ccccc2)c2oc3ccc(Cl)cc3c2n1,"inconclusive: 10.4 µM [inhibitor, single point]",
CCCCNc1cnn(-c2ccccc2)c(=O)c1Cl,"inconclusive: 0.0828 µM [inhibitor, full curve, poor fit]",
O=S(=O)(Nc1ccc(N2CCCCC2)cc1)c1ccc(F)c(F)c1,inactive,
CC(Sc1nnc(-c2ccncc2)n1C)C(=O)Nc1nccs1 (configuration not stated),"inconclusive: 18.5 µM [inhibitor, single point]",
Cc1ccc(OCC(=O)Oc2ccc(C)c(C)c2)cc1,"inconclusive: 18.5 µM [inhibitor, single point]",

# A few values from above:
# `Cc1cc(C)c(C)c(S(=O)(=O)N2CCN(C(=O)C3CSC4(C)CCC(=O)N34)CC2)c1C` (configuration not stated) – Potency: inconclusive: 4.65 µM [inhibitor, partial curve, poor fit]
# `CCN(Cc1ccccc1)C(=O)CCc1nc(-c2ccc(C)cc2)no1` – Potency: inconclusive: 20.8 µM [inhibitor, partial curve, poor fit]
# `Cc1nc(Nc2ccccc2)c2oc3ccc(Cl)cc3c2n1` – Potency: inconclusive: 10.4 µM [inhibitor, single point]
# `CC1CCCC(C)N1CCNC(=O)CCc1nnc2n(Cc3ccccc3)c(=O)c3ccccc3n12` (configuration not stated) – Potency: active: 11.7 µM
# `O=C(NC1CC1)c1cc2c(s1)-c1ccccc1OC2` – Potency: active: 13.1 µM

# More compounds:

SMILES,Potency,"activity change, negative = inhibition"
COc1cc(NC(=O)COc2ccc(F)cc2)nc(OC)n1,active: 13.1 µM,
COc1cc(S(=O)(=O)Nc2ccccc2N2CCCCC2)ccc1NC(C)=O,"inconclusive: 4.15 µM [inhibitor, single point]",
CCOC(=O)c1c(N)n(CCN2CCOCC2)c2nc3ccccc3nc12,"inconclusive: 0.738 µM [inhibitor, partial curve, poor fit]",
COc1ccc(/C=C/C(=O)Nc2ccccc2C(N)=O)cc1S(=O)(=O)N1CCOCC1,active: 4.15 µM,
Cc1ccnc2nc(C(=O)Nc3nc(-c4ccccn4)cs3)nn12,"inconclusive: 4.15 µM [inhibitor, full curve, poor fit]",
COc1ccccc1CNC(=O)Cn1cc2c(n1)CCCC2,inactive,
O=C(C1CCCN(c2ncccn2)C1)N1CCc2ccccc21 (configuration not stated),inactive,
CC(=O)N1CCc2cc(S(=O)(=O)CCC(=O)N3CCc4ccccc4C3)ccc21,"inconclusive: 18.5 µM [inhibitor, partial curve, poor fit]",
COc1cccc(/C=N/n2c(C3CCCCC3)n[nH]c2=S)c1OC,"inconclusive: 18.5 µM [inhibitor, single point]",
COc1cccc(/C=N/Nc2ccc(C(=O)O)cc2)c1O,inactive,
CCn1c(O)c(N=NC(=O)CNC(=O)/C=C/c2ccco2)c2ccccc21,inactive,
CCOC(=O)N1CCN(C(=O)c2ccc3c(=O)n(CCc4ccccc4)c(=S)[nH]c3c2)CC1,active: 8.28 µM,
O/N=C/c1cc(Br)cc(Br)c1OCc1ccccc1,,inactive: 2.67% [at 5.75 µM]
C=CCNC(=O)C(=O)N/N=C/c1ccco1,"inconclusive: 9.28 µM [inhibitor, single point]",
CCC(C)[C@H](NC(=O)N1CCCCCC1)C(=O)OC (some centres not stated),"inconclusive: 4.15 µM [inhibitor, partial curve, poor fit]",
COc1ccc(-c2nc3ncccn3c2Br)cc1,inactive,
Cc1cc(C)cc(NS(=O)(=O)c2ccc3[nH]cc(C(=O)N4CCc5ccccc54)c(=O)c3c2)c1,"inconclusive: 11.7 µM [inhibitor, single point]",
O=C(CC(c1ccco1)S(=O)(=O)c1ccccc1)c1ccccc1 (configuration not stated),inactive,
COc1cc(C)ccc1OCCOc1ccccc1Cl,inactive,
O=C(CCc1nnc2n(Cc3ccc(F)cc3)c(=O)c3ccccc3n12)NCCN1CCOCC1,"inconclusive: 11.7 µM [inhibitor, single point]",
CC(C)N1CCN(Cc2ccoc2)CC1CCO (configuration not stated),"inconclusive: 18.5 µM [inhibitor, single point]",
COC(=O)C1CCN(C(=O)c2cc(OC)c(OC)c(OC)c2)CC1,inactive,
CC(=O)c1ccc(S(=O)(=O)N2CCN(CC(=O)Nc3ccccc3C(=O)NC3CC3)CC2)cc1,"inconclusive: 9.28 µM [inhibitor, single point]",
COc1ccc(C2c3cc(OC)c(OC)cc3CCN2C(=O)c2ccccc2Br)cc1OC (configuration not stated),"inconclusive: 10.4 µM [inhibitor, single point]",
